Measurements published in the supplement of paper PMC10626197.

Tested on: MCF7
Test: cell viability relative to DMSO control (raw), single agent; higher = more viable cells
Conditions: exposure time 72 h
Method: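 MCF7 cells, 1000 cells/well in 384-well plates, single-agent wells of drug 2 (drug 1 at 0 µM) within 6x6 combination matrices (1:3 serial dilutions), 72 h at 37 °C. Viability read by CellTiter-Glo luminescence, 3 biological replicates. Normalised viability sets 0% at the highest doxorubicin dose and 100% at the 0,0 µM control per combination.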

[1] = 0.185185 µM, plate partner (at 0 µM): Vincristine
[2] = 0.555556 µM, plate partner (at 0 µM): Vincristine
[3] = 1.66667 µM, plate partner (at 0 µM): Vincristine
[4] = 5 µM, plate partner (at 0 µM): Vincristine

SMILES: C=CC(=O)Nc1cccc(Nc2nc(Nc3ccc(OCCOC)cc3)ncc2F)c1 [Spebrutinib]
- cell viability (0.37037 µM, plate partner (at 0 µM): Cabazitaxel): 88.4 ± 8.7%
- cell viability (0.37037 µM, plate partner (at 0 µM): Vincristine): 100 ± 12%
- cell viability (0.37037 µM, plate partner (at 0 µM): ixabepilone): 110 ± 7.5%
- cell viability (1.11111 µM, plate partner (at 0 µM): Cabazitaxel): 85.5 ± 13%
- cell viability (1.11111 µM, plate partner (at 0 µM): Vincristine): 95 ± 3.1%
- cell viability (1.11111 µM, plate partner (at 0 µM): ixabepilone): 104 ± 6.7%
- cell viability (3.33333 µM, plate partner (at 0 µM): Cabazitaxel): 79.4 ± 9.9%
- cell viability (3.33333 µM, plate partner (at 0 µM): Vincristine): 78.9 ± 6.7%
- cell viability (3.33333 µM, plate partner (at 0 µM): ixabepilone): 83.2 ± 6%
- cell viability (10 µM, plate partner (at 0 µM): Cabazitaxel): 57.9 ± 4.8%
- cell viability (10 µM, plate partner (at 0 µM): Vincristine): 58.1 ± 4.2%
- cell viability (10 µM, plate partner (at 0 µM): ixabepilone): 60.5 ± 4.3%
- cell viability (30 µM, plate partner (at 0 µM): Cabazitaxel): 10.2 ± 0.83%
- cell viability (30 µM, plate partner (at 0 µM): Vincristine): 16.6 ± 2.5%
- cell viability (30 µM, plate partner (at 0 µM): ixabepilone): 2.09 ± 0.59%

SMILES: CC1=C(/C=C/C(C)=C/C=C/C(C)=C\C(=O)O)C(C)(C)CCC1 [13-cis-Retinoic acid]
- cell viability (0.246914 µM, plate partner (at 0 µM): Docetaxel): 121 ± 6%
- cell viability (0.740741 µM, plate partner (at 0 µM): Docetaxel): 117 ± 3.6%
- cell viability (2.22222 µM, plate partner (at 0 µM): Docetaxel): 118 ± 6.2%
- cell viability (6.66667 µM, plate partner (at 0 µM): Docetaxel): 110 ± 7.2%
- cell viability (20 µM, plate partner (at 0 µM): Docetaxel): 105 ± 14%

SMILES: Cn1cc(-c2ccc3nnc(C(F)(F)c4ccc5ncccc5c4)n3n2)cn1
- cell viability (0.0617284 µM, plate partner (at 0 µM): Docetaxel): 112 ± 1.4%
- cell viability (0.0617284 µM, plate partner (at 0 µM): Mitoxantrone): 89.9 ± 6.8%
- cell viability (0.0617284 µM, plate partner (at 0 µM): Vincristine): 82.6 ± 7.3%
- cell viability (0.185185 µM, plate partner (at 0 µM): Docetaxel): 112 ± 8.5%
- cell viability (0.185185 µM, plate partner (at 0 µM): Mitoxantrone): 88 ± 13%
- cell viability [1]: 79.7 ± 3%
- cell viability (0.555556 µM, plate partner (at 0 µM): Docetaxel): 112 ± 6.6%
- cell viability (0.555556 µM, plate partner (at 0 µM): Mitoxantrone): 91.9 ± 10%
- cell viability [2]: 79 ± 1.9%
- cell viability (1.66667 µM, plate partner (at 0 µM): Docetaxel): 106 ± 2.7%
- cell viability (1.66667 µM, plate partner (at 0 µM): Mitoxantrone): 87.1 ± 7.6%
- cell viability [3]: 82.5 ± 2.6%
- cell viability (5 µM, plate partner (at 0 µM): Docetaxel): 102 ± 4%
- cell viability (5 µM, plate partner (at 0 µM): Mitoxantrone): 86.7 ± 9.1%
- cell viability [4]: 77.9 ± 3.2%

SMILES: CN(C)C(=O)C(CCN1CCC(O)(c2ccc(Cl)cc2)CC1)(c1ccccc1)c1ccccc1 [Loperamide (hydrochloride)]
- cell viability (0.185185 µM, plate partner (at 0 µM): Daunorubicin): 94.6 ± 2.5%
- cell viability [1]: 99.8 ± 6.4%
- cell viability (0.555556 µM, plate partner (at 0 µM): Daunorubicin): 94.7 ± 3.8%
- cell viability [2]: 101 ± 10%
- cell viability (1.66667 µM, plate partner (at 0 µM): Daunorubicin): 92.4 ± 7%
- cell viability [3]: 103 ± 3.3%
- cell viability (5 µM, plate partner (at 0 µM): Daunorubicin): 90.7 ± 11%
- cell viability [4]: 100 ± 7.4%
- cell viability (15 µM, plate partner (at 0 µM): Daunorubicin): 64.8 ± 13%
- cell viability (15 µM, plate partner (at 0 µM): Vincristine): 70.9 ± 13%

SMILES: COc1cc2ncnc(Nc3ccc(F)c(Cl)c3)c2cc1NC(=O)/C=C/CN1CCCCC1 [Dacomitinib]
- cell viability (0.246914 µM, plate partner (at 0 µM): Cabazitaxel): 101 ± 8.6%
- cell viability (0.246914 µM, plate partner (at 0 µM): Pazopanib): 96.5 ± 1.7%
- cell viability (0.246914 µM, plate partner (at 0 µM): ixabepilone): 101 ± 14%
- cell viability (0.740741 µM, plate partner (at 0 µM): Cabazitaxel): 91.7 ± 7%
- cell viability (0.740741 µM, plate partner (at 0 µM): Pazopanib): 97.6 ± 5.1%
- cell viability (0.740741 µM, plate partner (at 0 µM): ixabepilone): 102 ± 10%
- cell viability (2.22222 µM, plate partner (at 0 µM): Cabazitaxel): 95.1 ± 13%
- cell viability (2.22222 µM, plate partner (at 0 µM): Pazopanib): 89.4 ± 5.9%
- cell viability (2.22222 µM, plate partner (at 0 µM): ixabepilone): 90.3 ± 9.1%
- cell viability (6.66667 µM, plate partner (at 0 µM): Cabazitaxel): 37.4 ± 5%
- cell viability (6.66667 µM, plate partner (at 0 µM): Pazopanib): 35.6 ± 1.7%
- cell viability (6.66667 µM, plate partner (at 0 µM): ixabepilone): 33.2 ± 4.2%
- cell viability (20 µM, plate partner (at 0 µM): Cabazitaxel): 2.74 ± 0.51%
- cell viability (20 µM, plate partner (at 0 µM): Pazopanib): 0.871 ± 0.07%
- cell viability (20 µM, plate partner (at 0 µM): ixabepilone): 0.896 ± 0.12%

SMILES: NCCc1ccc(O)c(O)c1 [Dopamine HCl]
- cell viability (0.123457 µM, plate partner (at 0 µM): Letrozole): 119 ± 7%
- cell viability (0.37037 µM, plate partner (at 0 µM): Letrozole): 112 ± 16%
- cell viability (1.11111 µM, plate partner (at 0 µM): Letrozole): 114 ± 23%
- cell viability (3.33333 µM, plate partner (at 0 µM): Letrozole): 108 ± 6.7%
- cell viability (10 µM, plate partner (at 0 µM): Letrozole): 105.8 ± 0.96%

SMILES: CN(C)C[C@@H]1CCn2cc(c3ccccc32)C2=C(C(=O)NC2=O)c2cn(c3ccccc23)CCO1
- cell viability (0.123457 µM, plate partner (at 0 µM): Abiraterone): 87.5 ± 7.1%
- cell viability (0.37037 µM, plate partner (at 0 µM): Abiraterone): 90.7 ± 6.1%
- cell viability (1.11111 µM, plate partner (at 0 µM): Abiraterone): 95 ± 8.8%
- cell viability (3.33333 µM, plate partner (at 0 µM): Abiraterone): 80.3 ± 5.2%
- cell viability (10 µM, plate partner (at 0 µM): Abiraterone): 25.9 ± 7.3%

SMILES: Cc1c(Cn2c(C)nc3c(C(=O)O)cc(N4CCOCC4)cc32)cccc1C(F)(F)F
- cell viability (0.0123457 µM, plate partner (at 0 µM): Pazopanib): 90.2 ± 7.7%
- cell viability (0.037037 µM, plate partner (at 0 µM): Pazopanib): 91.3 ± 5.1%
- cell viability (0.111111 µM, plate partner (at 0 µM): Pazopanib): 88.1 ± 3.9%
- cell viability (0.333333 µM, plate partner (at 0 µM): Pazopanib): 86.5 ± 4.9%
- cell viability (1 µM, plate partner (at 0 µM): Pazopanib): 83 ± 11%

SMILES: Cc1[nH]c(/C=C2\C(=O)Nc3ccccc32)c(C)c1CCC(=O)O [Orantinib]
- cell viability (0.320988 µM, plate partner (at 0 µM): Hydroxyurea): 93.3 ± 3.2%
- cell viability (0.962963 µM, plate partner (at 0 µM): Hydroxyurea): 86.5 ± 11%
- cell viability (2.88889 µM, plate partner (at 0 µM): Hydroxyurea): 87.6 ± 13%
- cell viability (8.66667 µM, plate partner (at 0 µM): Hydroxyurea): 94.8 ± 6.7%
- cell viability (26 µM, plate partner (at 0 µM): Hydroxyurea): 76.6 ± 8.1%

SMILES: C[C@@H](NCCCc1cccc(C(F)(F)F)c1)c1cccc2ccccc12 [Cinacalcet (hydrochloride)]
- cell viability (0.123457 µM, plate partner (at 0 µM): Pralatrexate): 98.2 ± 6.8%
- cell viability (0.37037 µM, plate partner (at 0 µM): Pralatrexate): 103 ± 26%
- cell viability (1.11111 µM, plate partner (at 0 µM): Pralatrexate): 96 ± 16%
- cell viability (3.33333 µM, plate partner (at 0 µM): Pralatrexate): 63.3 ± 17%
- cell viability (10 µM, plate partner (at 0 µM): Pralatrexate): 7.95 ± 5%

SMILES: C[C@@H](Nc1ncnc2[nH]c(-c3ccc(O)cc3)cc12)c1ccccc1 [PKI-166]
- cell viability (0.123457 µM, plate partner (at 0 µM): Axitinib): 102 ± 4.1%
- cell viability (0.37037 µM, plate partner (at 0 µM): Axitinib): 104 ± 1.8%
- cell viability (1.11111 µM, plate partner (at 0 µM): Axitinib): 108 ± 6.2%
- cell viability (3.33333 µM, plate partner (at 0 µM): Axitinib): 104 ± 1.3%
- cell viability (10 µM, plate partner (at 0 µM): Axitinib): 83.6 ± 8.4%

SMILES: CN(C)CCCN1c2ccccc2CCc2ccc(Cl)cc21 [Clomipramine (hydrochloride)]
- cell viability (0.123457 µM, plate partner (at 0 µM): Carmustine): 99.1 ± 5.2%
- cell viability (0.123457 µM, plate partner (at 0 µM): Erlotinib): 110 ± 9.1%
- cell viability (0.123457 µM, plate partner (at 0 µM): Pazopanib): 87.4 ± 8%
- cell viability (0.37037 µM, plate partner (at 0 µM): Carmustine): 108 ± 10%
- cell viability (0.37037 µM, plate partner (at 0 µM): Erlotinib): 119 ± 12%
- cell viability (0.37037 µM, plate partner (at 0 µM): Pazopanib): 80.4 ± 1.3%
- cell viability (1.11111 µM, plate partner (at 0 µM): Carmustine): 109 ± 8.3%
- cell viability (1.11111 µM, plate partner (at 0 µM): Erlotinib): 114 ± 12%
- cell viability (1.11111 µM, plate partner (at 0 µM): Pazopanib): 85.1 ± 3.5%
- cell viability (3.33333 µM, plate partner (at 0 µM): Carmustine): 111 ± 16%
- cell viability (3.33333 µM, plate partner (at 0 µM): Erlotinib): 109 ± 7.5%
- cell viability (3.33333 µM, plate partner (at 0 µM): Pazopanib): 79.2 ± 7.5%
- cell viability (10 µM, plate partner (at 0 µM): Carmustine): 83.3 ± 5.2%
- cell viability (10 µM, plate partner (at 0 µM): Erlotinib): 90.3 ± 3.6%
- cell viability (10 µM, plate partner (at 0 µM): Pazopanib): 70.7 ± 9.2%

Counter-ions that a name gives are not always drawn. ± gives the standard deviation of the averaged measurements. Some well-known active drugs show little effect in this data set, so a weak value is uncertain.
